Measured values taken from article PMC8962559.
No constants are given. Whether binding was seen depends on the method and setting. For some of these results: Binding seen in cells or lysates may run through a third protein. Some results given as binding are weak or reduced against the parent protein; the word gives no strength. One block for each substance: values may come before it.

Chains of the proteins cited; added tags and fusions are not shown.
UniProt Q9BRP0: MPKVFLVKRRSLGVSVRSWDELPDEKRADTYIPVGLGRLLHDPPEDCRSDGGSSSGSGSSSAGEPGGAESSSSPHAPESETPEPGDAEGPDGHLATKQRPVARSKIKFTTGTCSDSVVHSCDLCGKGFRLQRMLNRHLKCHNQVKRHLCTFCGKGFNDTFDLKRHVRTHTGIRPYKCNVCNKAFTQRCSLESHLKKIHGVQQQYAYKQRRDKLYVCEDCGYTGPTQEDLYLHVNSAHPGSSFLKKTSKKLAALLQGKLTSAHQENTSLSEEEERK
UniProt Q04206: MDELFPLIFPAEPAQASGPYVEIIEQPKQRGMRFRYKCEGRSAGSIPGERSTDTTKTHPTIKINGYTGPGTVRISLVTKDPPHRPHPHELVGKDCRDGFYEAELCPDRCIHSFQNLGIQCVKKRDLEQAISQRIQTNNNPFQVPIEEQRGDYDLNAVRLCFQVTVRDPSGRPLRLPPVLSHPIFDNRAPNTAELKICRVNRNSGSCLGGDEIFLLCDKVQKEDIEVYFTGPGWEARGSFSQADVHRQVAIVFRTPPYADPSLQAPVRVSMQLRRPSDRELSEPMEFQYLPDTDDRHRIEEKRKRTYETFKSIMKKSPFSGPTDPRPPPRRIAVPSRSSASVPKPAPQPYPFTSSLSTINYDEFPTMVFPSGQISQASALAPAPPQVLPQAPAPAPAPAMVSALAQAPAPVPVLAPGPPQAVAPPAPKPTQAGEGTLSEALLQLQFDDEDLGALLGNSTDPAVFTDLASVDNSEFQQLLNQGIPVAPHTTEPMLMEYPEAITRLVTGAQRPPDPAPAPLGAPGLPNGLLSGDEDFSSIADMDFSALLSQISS

Key:
[1] = molecular target: FLAG-tagged full-length OVOL2 (UniProt Q9BRP0); experiment: co-IP; HEK293T cells transfected with FLAG-tagged OVOL2 (full-length or deletion forms) and HA-tagged P65; lysis buffer 20 mM Tris-HCl pH 7.5, 150 mM NaCl, 1 mM EDTA, 1 mM EGTA, 1% Triton X-100; protein A/G beads, 4 °C
[2] = molecular target: GST-tagged full-length OVOL2 (UniProt Q9BRP0); experiment: pull-down; in vitro pulldown of recombinant proteins: GST-tagged OVOL2 on glutathione-Sepharose beads, His-tagged P65; 4 °C, 3 h; wash 20 mM HEPES pH 7.9, 0.2 mM EDTA, 20% glycerol, 0.15 M KCl, 0.2% NP-40; both purified
[3] = molecular target: endogenous P65 (human (endogenous in NCC-827 and SK-MES-1)) (UniProt Q04206); experiment: co-IP; endogenous P300 and P65 in SK-MES-1 cells with or without OVOL2 overexpression
[4] = molecular target: endogenous OVOL2 (human (endogenous in NCC-827)) (UniProt Q9BRP0); experiment: co-IP; endogenous proteins, nuclear extracts from NCC-827 cells, immunoprecipitation with an anti-OVOL2 antibody

- binding [1]: binds
Substance: HA-tagged P65 (from UniProt Q04206 1-551)

- binding [2]: binds
Substance: His-tagged P65 (from UniProt Q04206 1-551)

- binding [3]: binds
Substance: OVOL2 overexpressed in SK-MES-1 cells (from UniProt Q9BRP0 1-275)

- binding [4]: binds
Substance: endogenous P65 (from UniProt Q04206 1-551)
